The values below come from doi:10.1101/2022.08.24.504515.

Chains of the proteins cited; added tags and fusions are not shown.
UniProt Q9UQB8: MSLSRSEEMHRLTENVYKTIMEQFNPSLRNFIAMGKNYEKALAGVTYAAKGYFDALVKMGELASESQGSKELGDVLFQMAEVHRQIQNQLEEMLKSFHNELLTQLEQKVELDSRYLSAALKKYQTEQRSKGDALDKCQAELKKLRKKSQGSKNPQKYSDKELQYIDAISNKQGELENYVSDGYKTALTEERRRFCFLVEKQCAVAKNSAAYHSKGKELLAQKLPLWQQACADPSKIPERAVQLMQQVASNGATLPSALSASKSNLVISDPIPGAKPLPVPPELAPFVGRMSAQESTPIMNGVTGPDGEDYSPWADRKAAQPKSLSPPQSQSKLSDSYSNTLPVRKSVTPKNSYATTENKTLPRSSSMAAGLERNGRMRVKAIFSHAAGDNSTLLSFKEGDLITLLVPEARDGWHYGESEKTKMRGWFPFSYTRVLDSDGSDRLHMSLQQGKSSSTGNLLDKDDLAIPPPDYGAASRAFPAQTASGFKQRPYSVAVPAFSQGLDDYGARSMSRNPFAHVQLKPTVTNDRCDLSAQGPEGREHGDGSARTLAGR

Results are given in words; binding and its absence hold for the method and conditions named. Binding seen in cells or lysates may run through a third protein. Here binding means that the protein was enriched with, or labelled near, the bait; the list need not be complete.

B1: Drebrin (protein, UniProt Q9QXS6 1-706)
chain: MAGVSFSGHRLELLAAYEEVIREESAADWALYTYEDGSDDLKLAASGEGGLQELSGHFENQKVMYGFCSVKDSQAALPKYVLINWVGEDVPDARKCACASHVAKVAEFFQGVDVIVNASSVEDIDAGAIGQRLSNGLARLSSPVLHRLRLREDENAEPVGTTYQKTDAAVEMKRINREQFWEQAKKEEELRKEEERKKALDARLRFEQERMEQERQEQEERERRYREREQQIEEHRRKQQSLEAEEAKRRLKEQSIFGDQRDEEEESQMKKSESEVEEAAAIIAQRPDNPREFFRQQERVASASGGSCDAPAPAPFNHRPGRPYCPFIKASDSGPSSSSSSSSSPPRTPFPYITCHRTPNLSSSLPCSHLDSHRRMAPTPIPTRSPSDSSTASTPIAEQIERALDEVTSSQPPPPPPPPPPTQEAQETTPSLDEELSKEAKVTAAPEVWAGCAAEPPQAQEPPLLQSSPLEDSMCTESPEQAALAAPAEPAASVTSVADVHAADTIETTTATTDTTIANNVTPAAASLIDLWPGNGEEASTLQAEPRVPTPPSGAEASLAEVPLLNEAAQEPLPPVGEGCANLLNFDELPEPPATFCDPEEEVGETLAASQVLTMPSALEEVDQVLEQELEPEPHLLTNGETTQKEGTQASEGYFSQSQEEEFAQSEEPCAKVPPPVFYNKPPEIDITCWDADPVPEEEEGFEGGD
B2: delphilin (protein, UniProt Q0QWG9 1-1203)
chain: MPATNQGWPEDFGFQLGGSGPCFVIEVAEGSSAHAGGLRPGDQILEVEGLAVGGLSRERIVRLARRCPRVPPSLGVLPGPEGGPTALTAAWLTRRFGRSLPLSRELLRLAGGPRPDAVHRERRRKAQEFSCQVDDILGDRLTAKEQVFTALKQFAAEQRVDELVWTLTLVLPSEAQGPVLDNLRIFIPKKHRARFDEVVSQGLLGKLCRARRAQGAQRLRRSRSEERPERLLVSTRASAAPRRPDEPPPRKATSLLGGRTGPGGPRRTVRVYKGNKSFGFTLRGHGPVWIESVLPGSPAENASLKSGDRILFLNGLDMRNCSHDKVVSMLQGSGAMPTLVVEEGPVPFASDSDSLDSPTRASALTSLQWVADILPSSIRVQGRTFSQQLDHLLTPPERYGVCRALERFFQHRNIDTLIVDVYPVLDTPAKQVLWQFLYQLLTYEEQELCQEKIACFLGYTAMTEPESSLDLEPESTPEPTPEPQPRSSLRASSMCRRSLRSQGLETSLSCGPGDCPEMPLPLIPGERQAGDGTSLPETPNPKMMSAVYAELESRLNSSFKGKIGTMSKSRASPPVPSLVGTSGPRTLSGVSWPSDRLLPSPCYDPLCSGGLASPSSSESHPYASLDSSRAPSPQPGLGSIHADSPPSPDPIRPPSRRKLFAFSRPVRSRDTDRFLDALSEQLGPRLSIVDDFLTPENDYEEMSFHDDQGSFVTNERSSASECVSSSEEGSSLTYSSISDHIPPPPLSPPPPPPLPFHDPKPSSRTSDGPRGPPQSLTKPLTQINHPVPPPPPPPLPPPVPCAPPMLSRGVGHRRSETSHMSVKRLRWEQVENSEGTIWGQLGEDSDYDKLSDMVKYLDLELHFGTQKPPKPVPGPEPFRKKEVVEILSHKKAYNTSILLAHLKLTPGELRQVLMSMEPRRLEPAHLAQLLLFAPDADEEQRYQAFREAPGRLSEPDQFVLQMLSVPEYKTRLRSLHFQATLQEKTEEIRGSLECLRQASLELKNSRKLAKILEFVLAMGNYLNDGQPKTNKTTGFKINFLTELNSTKTVDGKSTFLHILAKSLSQHFPELLGFAQDLPTVPLAAKVNQRALTGDLADLHDTVSEIQVACQSMAPSSEDRFAVVMASFLETAQPALRALDGLQREAMEELGKALAFFGEDSKATTSEAFFGIFSEFMSKFERALSDLQAGDGPRSSGMVSPLAW
B3: tropomodulin 3 (protein, UniProt Q9JHJ0 1-352)
chain: MALPFRKDLGDYKDLDEDELLGKLSESELKQLETVLDDLDPENALLPAGFRQKNQTSKSATGPFDRERLLSYLEKQALEHKDRDDYVPYTGEKKGKIFIPKQKPAQTLTEETISLDPELEEALTSASDTELCDLAAILGMHNLIADTPFCDVLGSSNGVNQERFPNVVKGEKILPVFDEPPNPTNVEESLKRIRENDARLVEVNLNNIKNIPIPTLKDFAKTLEANTHVKHFSLAATRSNDPVAVAFADMLKVNKTLKSLNMESNFITGAGVLALIDALRDNETLMELKIDNQRQQLGTSVELEMAKMLEENTNILKFGYQFTQQGPRTRAANAITKNNDLVRKRRIEGDHQ

The experiment concerns the target IRSp53-EGFP (UniProt Q9UQB8). Put plainly: affinity purification with mass spectrometry.
Take B1: the binding entry was “binds”. On to B2, for which the binding entry is “binds”. Next, B3: “binds”.
